PubChem BioAssay
This list was built around the results that the source calls inconclusive (neither active nor inactive); the mix of calls is not that of the screen. Activity calls are given as the source filed them.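 Rule for the calls: active = growth inhibition above a set limit, 3 SD over mean compound inhibition, in both replicates (cut at about 43% in these data); inconclusive = above the limit in only one replicate; inactive = at or below the limit in both replicates.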

Assay: S. cerevisiae growth inhibition in restrictive medium, OD615, pilot screen, restrictive growth control, yeast lifespan reduction project (AID 706);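 note: modified DeaD lifespan yeast strain shifted to restrictive glucose medium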
Conditions: OD615, 48 h, at 10 µM, hits give high values
How it was run: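 material = engineered S. cerevisiae DeaD strain | medium = glucose-based CSMM-D restrictive medium | times = 4 h pre-incubation, 48 h exposure at 30 °C | technique = OD615 absorbance reading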

Row | SMILES | growth inhibition
1 | Clc1ccccc1CSc1nnc(-c2ccccn2)n1Cc1ccco1 | inconclusive: 36.2%
2 | O=C(Nc1nc2c(s1)CCCC2)c1ccc2ncsc2c1 | inconclusive: 38.3%
3 | O=C(CSc1nnc(-c2ccccn2)n1Cc1ccco1)c1ccccc1 | inconclusive: 40.5%
4 | CCN1CCN(C(=O)C(NS(=O)(=O)c2ccc3nc(C)sc3c2)C(C)C)CC1 (centres undefined) | inconclusive: 45.9%
5 | CCOc1cccc(C(=O)Nc2cc(-c3nn4c(C)nnc4s3)ccc2C)c1 | inconclusive: 43.5%
6 | COc1cc(Cl)c(C)cc1NC(=O)CSc1nnc(-c2cccnc2)n1Cc1ccco1 | inconclusive: 41.8%
7 | Cn1c(C(=O)N2CCC(C(=O)N3CCN(Cc4ccc5c(c4)OCO5)CC3)CC2)cc2sccc21 | inconclusive: 36.7%
8 | Cn1c(CNc2ccccc2O)nc2ccccc21 | inconclusive: 43%
9 | CC(=O)Nc1ccc(OC/C=C(\C)Cl)cc1 | inactive: -7.54%
10 | COc1cc(C2CC(=O)N3CN(Cc4ccco4)CSC3=C2C#N)ccc1OCc1ccccc1 (centres undefined) | inconclusive: 23.1%
11 | COc1ccc(OC)c(C2CC(=O)N3CN(c4ccc(C)c(Cl)c4)CSC3=C2C#N)c1 (centres undefined) | inconclusive: 39.7%
12 | O=C(CSc1nnc(COc2ccccc2)o1)Nc1nccs1 | inactive: 4.11%
13 | c1ccc(-c2nnc(SCc3nc4ccccc4[nH]3)o2)cc1 | inconclusive: 36.9%
14 | CC(=O)N(c1ccccc1)C1SC(=O)N(c2ccccc2)C1=O (centres undefined) | inactive: -9.37%
15 | COc1ccccc1C(=O)Nc1cc(-c2nn3c(C)nnc3s2)ccc1C | inconclusive: 45.9%
16 | NC(=O)c1sc2nc(N3CCCCC3)c3c(c2c1N)CCCC3 | inconclusive: 36.5%
17 | CC(C)CNS(=O)(=O)c1ccc(S(=O)(=O)N2CCN(CCC#N)CC2)cc1 | inactive: -4.15%
18 | O=c1c2ccccc2[nH]c(=S)n1Cc1cccnc1 | inconclusive: 37.6%
19 | CCN1CCCC1CNC(=O)c1cc2c(=O)n(C)c3ccccc3c2n1C (centres undefined) | inactive: -3.33%
20 | CCOc1ccccc1C1CC(c2ccc(Br)cc2)Nc2nc(N)nn21 (centres undefined) | inconclusive: 37.8%

As entered above.
Value for `CC(C)CNS(=O)(=O)c1ccc(S(=O)(=O)N2CCN(CCC#N)CC2)cc1` under growth inhibition: inactive: -4.15%
Value for `O=C(Nc1nc2c(s1)CCCC2)c1ccc2ncsc2c1` under growth inhibition: inconclusive: 38.3%

Following part

Row | SMILES | growth inhibition
21 | Cn1cccc1Cc1nnc(SCC(=O)NC2CCCC2)n1CCc1ccccc1 | inconclusive: 32.7%
22 | CN(C)C(CNC(=O)c1cccs1)c1cccnc1 (centres undefined) | inactive: -20.4%
23 | C=CCNC(=O)c1c(Cl)cccc1Cl | inactive: 3.24%
24 | CCN(CC)C1CC(=O)N(c2cccc(C)c2)C1=O (centres undefined) | inconclusive: 44.2%
25 | COc1ccc(S(=O)(=O)N2CCN(c3ccc4nnc(-c5ccc(F)cc5)n4n3)CC2)cc1 | inconclusive: 33.7%
26 | COc1cc(OC)cc(-c2nc(-c3ccc(Br)cc3)no2)c1 | inactive: -13.2%
27 | C=CCSc1nnc2nc3c(nn12)c1cc(C)ccc1n3CC=C | active: 51.1%
28 | CCOC(=O)N1CCN(C(=O)CSc2nc3c(cnn3-c3ccc(C)cc3)c(=O)[nH]2)CC1 | inactive: 4.84%
29 | COc1ccccc1-c1nnc(NC(=O)C(C)SC2=NCCS2)s1 (centres undefined) | active: 48.7%
30 | CCOc1ccccc1N1CSC2=C(C#N)C(c3c(OC)ccc4ccccc34)CC(=O)N2C1 (centres undefined) | inconclusive: 32.9%
31 | CC(=O)C(Sc1ccc2nnc(-c3ccc(C)cc3)n2n1)C(C)=O | inconclusive: 31.4%
32 | COc1ccc(OC)c(C2CC(=O)N3CN(c4cccc(Cl)c4)CSC3=C2C#N)c1 (centres undefined) | inconclusive: 47.2%
33 | Cc1noc(C)c1S(=O)(=O)N1CCN(Cc2ccc3c(c2)OCO3)CC1 | inactive: 7.12%
34 | Cc1ccc(O)c(C(=O)CC(=O)c2cccc(F)c2)c1 | active: 50%
35 | O=C(CSc1ccc2nnc(-c3ccc(Cl)cc3)n2n1)N1CCCC1 | inconclusive: 34.1%
36 | Cc1ccc(NC(=O)C2CCCN2S(=O)(=O)c2ccc3c(c2)CCC(=O)N3)cc1Cl (centres undefined) | inactive: 8.74%
37 | CCC1CCCCN1C(=O)CSc1nnc(-c2ccc(OC)cc2)o1 (centres undefined) | active: 54.4%
38 | CCC(C)N1CC23C=CC(O2)C(C(=O)OC)C3C1=O (centres undefined) | inconclusive: 56%
39 | COc1ccc(OCc2nnc3n2N=C(c2ccc(Br)cc2)CS3)cc1 | inconclusive: 24%
